Measurements reported in PubChem BioAssay AID256 (DTP/NCI, 2004).
The list shows only some results of the screen, not a fair sample: it is rich in T/C values a quarter to a half above the control, in often repeated tests (any T/C) and in doses without a T/C. Other doses and runs of a compound stand elsewhere. T/C is the treated group as % of the vehicle group. Some entries give survivors of the animals treated and no T/C: the source holds a T/C of zero for them, seemingly a mark for toxic or unscored doses. Some doses without a T/C left all or most animals alive at the check, yet need not have been tolerated: the source hardly ever lists a survival T/C far under the control, and the zero likely stands for such cases as well. Survivors were counted at the toxicity check, usually on the fifth day, unless a day is given; later deaths do not show. Schedules are NCI's codes, taken here to give the interval after Q, in days (D) or hours (H), and the number of doses after X. Some doses were run more than once; the results are listed from low to high. Some schedules carry Z or #; the key to these is not given. For survival time, the PubChem record calls one and a half times the control and up active, and a quarter to a half above the control has no call in these data; cut-offs in other NCI protocols can differ. Some T/C values are followed by the survivors on the day toxicity was checked, most often the fifth; where none is given, no animal had died by that day.

System: CD2F1 mice, L1210 leukemia ip, survival T/C
Test: NCI In Vivo Anticancer Drug Screen. Data for tumor model L1210 Leukemia (intraperitoneal) in CD2F1 (CDF1) mice
Details: higher T/C = longer survival
Summary of the method: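 Read-out first: treated-group measurement over vehicle-control measurement, expressed as a ratio. Animals bore a transplanted tumor line and were dosed with compound or vehicle.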

[1] = T/C endpoint: mean survival time, dose: 400.0 mg/kg/injection, schedule: Q04DX003 (ip), vehicle: saline with Tween-80
[2] = T/C endpoint: mean survival time, dose: 400.0 mg/kg/injection, schedule: Q04DX002 (ip), vehicle: saline with Tween-80
[3] = T/C endpoint: mean survival time, dose: 200.0 mg/kg/injection, schedule: Q01DX009 (ip), vehicle: saline
[4] = T/C endpoint: mean survival time, dose: 100.0 mg/kg/injection, schedule: Q01DX009 (ip), vehicle: saline
[5] = T/C endpoint: mean survival time, dose: 200.0 mg/kg/injection, schedule: Q01DX009 (ip), vehicle: saline with Tween-80
[6] = T/C endpoint: mean survival time, dose: 400.0 mg/kg/injection, schedule: Q01DX009 (ip), vehicle: saline with Tween-80
[7] = T/C endpoint: mean survival time, dose: 400.0 mg/kg/injection, schedule: Q04DX003 (ip), vehicle: saline
[8] = T/C endpoint: mean survival time, dose: 200.0 mg/kg/injection, schedule: Q04DX003 (ip), vehicle: saline with Tween-80
[9] = T/C endpoint: mean survival time, dose: 100.0 mg/kg/injection, schedule: Q04DX003 (ip), vehicle: saline
[10] = T/C endpoint: mean survival time, dose: 200.0 mg/kg/injection, schedule: Q04DX003 (ip), vehicle: saline
[11] = T/C endpoint: mean survival time, dose: 400.0 mg/kg/injection, schedule: Q01DX001 (ip), vehicle: saline

## NCCCOCCOCCOCCOCCCN
T/C endpoint: mean survival time, dose: 200.0 mg/kg/injection, schedule: Q01DX001 (ip), vehicle: saline sonified
  survivor count: 3 of 6
T/C endpoint: mean survival time, dose: 400.0 mg/kg/injection, schedule: Q01DX001 (ip), vehicle: saline sonified
  survivor count: 0 of 6

## CN(C)CCOc1ccccc1Cc1ccccc1
[1]
  survivor count: 2 of 6

## Nc1n[nH]c(=S)s1
[2]
  survivor count: 1 of 3

## O=C(O)CS(=O)(=O)c1ccccc1
[3]
  survivor count: 6 of 6

## CC(C)CCCC(C)C1CCC2C3CC(C(=O)O)C(C)(CCC(=O)O)C3CCC12C (stereo not drawn)
T/C endpoint: mean survival time, dose: 300.0 mg/kg/injection, schedule: Q01DX001 (ip), vehicle: other
  survivor count: 3 of 6

## O=C(CCCl)c1ccccc1
T/C endpoint: mean survival time, dose: 200.0 mg/kg/injection, schedule: Q01DX009 (ip), vehicle: other
  survivor count: 1 of 6
T/C endpoint: mean survival time, dose: 400.0 mg/kg/injection, schedule: Q01DX009 (ip), vehicle: other
  survivor count: 4 of 6

## c1ccc(Nc2ccccc2)cc1 (tested in a mixture with another compound)
T/C endpoint: mean survival time, dose: 200.0 mg/kg/injection, schedule: Q04DX002 (ip), vehicle: saline
  survivor count: 0 of 3
T/C endpoint: mean survival time, dose: 400.0 mg/kg/injection, schedule: Q04DX002 (ip), vehicle: saline
  survivor count: 0 of 3

## CCCn1cnc2c(=S)nc[nH]c21
T/C endpoint: mean survival time, dose: 250.0 mg/kg/injection, schedule: Q01DX Z (ip), vehicle: carboxymethylcellulose (CMC)
  survivor count: 6 of 7
T/C endpoint: mean survival time, dose: 300.0 mg/kg/injection, schedule: Q01DX Z (ip), vehicle: carboxymethylcellulose (CMC)
  survivor count: 3 of 7

## CN(CCC#N)c1ccc(C(=C2C=CC(=Nc3ccccc3)c3ccccc32)c2ccc(N(C)CCC#N)cc2)cc1
[2]
  survivor count: 2 of 3

## C=C1C(=O)OC2/C=C(\C)CC/C=C(/C)CC(OC(=O)/C(=C/CO)CO)C12 (stereo not drawn)
T/C endpoint: mean survival time, dose: 80.0 mg/kg/injection, schedule: Q01DX009 (ip), vehicle: Klucel (hydroxypropylcellulose) (HPC)
  survivor count: 3 of 6

## Cc1cc(SCC(=O)c2ccc(Br)cc2)cc(C)[o+]1
[4]
  survivor count: 2 of 6
[3]
  survivor count: 3 of 6

## O=C1OC(=O)C2CCCC3CCCC1C32 (stereo not drawn)
[2]
  survivor count: 0 of 3

## CN(C)C(=Nc1ccccc1)N(C)N
T/C endpoint: mean survival time, dose: 300.0 mg/kg/injection, schedule: Q01DX001 (ip), vehicle: saline
  survivor count: 0 of 6

## CCCCNC(=O)Oc1ccc(C(=O)OCC)cc1
[5]
  survivor count: 3 of 6
[6]
  survivor count: 2 of 6

## O=c1nc(-c2ccccc2)c(-c2ccccc2)n[nH]1
[7]
  survivor count: 1 of 6

## CCN(CC)CCCC(C)Nc1ncnc2oc(C)c(C)c12 (stereo not drawn)
T/C endpoint: mean survival time, dose: 100.0 mg/kg/injection, schedule: Q04DX003 (ip), vehicle: saline with Tween-80
  survivor count: 2 of 6
[8]
  survivor count: 1 of 6
[1]
  survivor count: 0 of 6

## Nc1ncn(C2OC(COC(=O)c3ccccc3)C(OC(=O)c3ccccc3)C2OC(=O)c2ccccc2)c(=O)n1 (stereo not drawn)
T/C endpoint: mean survival time, dose: 1.56 mg/kg/injection, schedule: Q01DX009 (ip), vehicle: saline
  T/C: 129 % of control
T/C endpoint: mean survival time, dose: 3.12 mg/kg/injection, schedule: Q01DX009 (ip), vehicle: saline
  T/C: 125 and 137 % of control
[4]
  survivor count: 5 of 6 and 6 of 6

## CC(=O)c1ccc2c3c(ccc([N+](=O)[O-])c13)C(=O)OC2=O
[1]
  survivor count: 1 of 6

## CN/N=C1\CCC2(C)C(CCC3C4CCC(O)C4(C)CCC32)C1 (stereo not drawn)
T/C endpoint: mean survival time, dose: 100.0 mg/kg/injection, schedule: Q01DX009 (ip), vehicle: Klucel (hydroxypropylcellulose) (HPC)
  survivor count: 3 of 6
T/C endpoint: mean survival time, dose: 200.0 mg/kg/injection, schedule: Q01DX009 (ip), vehicle: Klucel (hydroxypropylcellulose) (HPC)
  survivor count: 0 of 6

## COc1cc(NC(C)CCCN)c2ncccc2c1 (stereo not drawn)
[9]
  survivor count: 6 of 6
[10]
  survivor count: 0 of 6
[7]
  survivor count: 0 of 6

## O=C(NCCN1CC1)c1ccccc1C(=O)NCCN1CC1
[8]
  T/C: 129 % of control [5 of 6 alive]
[11]
  T/C: 138 % of control [5 of 6 alive]

## CCOC(=O)Nc1cc2c(c(N)n1)N=C(c1ccccc1)CO2
T/C endpoint: median survival time, dose: 400.0 mg/kg/injection, schedule: Q01DX009 (ip), vehicle: saline with Tween-80
  T/C: 125 % of control
T/C endpoint: median survival time, dose: 800.0 mg/kg/injection, schedule: Q01DX009 (ip), vehicle: saline with Tween-80
  T/C: 136 [5 of 6 alive] and 144 % of control

## O=S(=O)(O)O.[N-]=C(N)/N=C(\[NH-])N.[N-]=C(N)/N=C(\[NH-])N.[N-]=C(N)NC(=[N-])N.[Rh+3]
T/C endpoint: mean survival time, dose: 50.0 mg/kg/injection, schedule: Q04DX003 (ip), vehicle: saline
  survivor count: 5 of 6
[9]
  survivor count: 0 of 6
[10]
  survivor count: 0 of 6
[7]
  survivor count: 0 of 6

## CN(C)/N=C(\CBr)c1ccc(Br)cc1
[11]
  survivor count: 2 of 6

## C[Si](C)c1cccc(Cl)c1
[6]
  survivor count: 0 of 6

## COc1cc2c(c(OC)c1OC)-c1cc(I)c(O)cc1[C@@H](NC(C)=O)CC2
T/C endpoint: mean survival time, dose: 25.0 mg/kg/injection, schedule: Q01DX009 (ip), vehicle: saline with Tween-80
  T/C: 136 % of control
T/C endpoint: mean survival time, dose: 50.0 mg/kg/injection, schedule: Q01DX009 (ip), vehicle: saline with Tween-80
  T/C: 132 % of control
T/C endpoint: mean survival time, dose: 132.0 mg/kg/injection, schedule: Q01DX009 (ip), vehicle: saline with Tween-80
  survivor count: 6 of 6
[5]
  survivor count: 6 of 6
T/C endpoint: mean survival time, dose: 300.0 mg/kg/injection, schedule: Q01DX009 (ip), vehicle: saline with Tween-80
  survivor count: 5 of 6
